From PubChem BioAssay AID504834 (National Center for Advancing Translational Sciences (NCATS), 2011)
The campaign covered roughly 320,000 compounds. About 22,000 (6.9%) were called active. The shares of active, inactive and inconclusive entries below differ from those in the screen. The call rests on the fitted dose curve; in most records, active means well fitted inhibition curve with a large enough effect; inconclusive means small, poorly fitted or top-dose-only effect, or another doubt; inactive means no such curve, though single readings can be large or run the other way. Potencies of inconclusive entries are doubtful fits and often do not repeat.

Assay: Primary qHTS for delayed death inhibitors of the malarial parasite plastid, 96 hour incubation
Settings: P. falciparum luciferase reporter growth; series mostly up to 28.7 µM
How it was run: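 Erythrocytes infected with luciferase-expressing P. falciparum were dispensed at 2% hematocrit and 0.05% parasitemia (final), then incubated with compounds 96 hours at 37 C in 5% CO2. Luminescence after detection reagent addition reported growth.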
Potency means the concentration at half of the fitted maximal effect.

SMILES | Potency
Cc1ccc(C(=O)O/N=C\c2ccc(N3CCCCC3)c([N+](=O)[O-])c2)cc1 | inactive
CCOC(=O)Cc1csc(NC(=O)CCc2ccc(S(=O)(=O)N3CCOCC3)cc2)n1 | inconclusive: 18.5 µM [inhibitor, single point]
CC(=O)N1c2ccc(S(=O)(=O)NCC3CCC(C(=O)NC4CCCCC4C)CC3)cc2CC1C (stereo not drawn) | inconclusive: 10.4 µM [inhibitor, single point]
CCS(=O)(=O)N1CCCC(C(=O)N2CCC3(CC2)OCCO3)C1 (stereo not drawn) | inconclusive: 0.0104 µM [inhibitor, full curve, poor fit]
COCCN(Cc1ccc(F)cc1)C(=O)c1cc2ccccc2oc1=O | inactive
CCc1ccc(C(C)(O)C(CN2CCOCC2)c2ccccc2)cc1 (stereo not drawn) | inactive
O=C(c1cccc([N+](=O)[O-])c1)N1CC2C3C=CC(C3)C2C1 (stereo not drawn) | inconclusive: 18.5 µM [inhibitor, single point]
O=C1C(Nc2ccccc2)=C/C(=N/S(=O)(=O)c2cccs2)c2ccccc21 | active: 0.522 µM
COc1cc2c(c(OC)c1)C(=O)OC(C)CCCC(=O)CCCCC2 (stereo not drawn) | inconclusive: 4.15 µM [inhibitor, partial curve]
O=C1CCCN1c1ccc(S(=O)(=O)O)cc1 (tested in a mixture with another compound) | inconclusive: 14.7 µM [inhibitor, partial curve, poor fit]
O=C(O)[C@H]1C(=CCO)O[C@H]2CC(=O)N12 | inactive
COc1ccc(N(C)C(=O)c2cn(C)c(=O)c3cc(OC)c(OC)cc23)cc1 | inconclusive: 0.465 µM [inhibitor, partial curve, poor fit]
COC(=O)C1(C)NC(c2ccco2)C2C(=O)N(c3ccc(F)cc3)C(=O)C21 (stereo not drawn) | inconclusive: 20.8 µM [inhibitor, partial curve, poor fit]
COc1ccc2c(c1)sc(N)[n+]2Cc1cc(C)cc2cccnc12 | inconclusive: 9.28 µM [inhibitor, single point]
O=C(OCC#CCSc1nnc(-c2ccc(Br)cc2)o1)c1cccs1 | inactive
CN(C)S(=O)(=O)N1CCN(S(=O)(=O)c2ccc3ccccc3c2)CC1 | inconclusive: 9.28 µM [inhibitor, single point]
O=C(N/N=C\c1ccncc1)c1ccc(Br)s1 | inactive
O=C(Nc1ccc2c(c1)OCO2)c1ccc(Br)c(S(=O)(=O)N2CCCC2)c1 | inactive
Cc1nnc(SCc2nc3ccccc3s2)n1-c1ccccc1 | inconclusive: 14.7 µM [inhibitor, single point]
Cc1c(Cl)c([N+](=O)[O-])nn1Cc1ccc(C(=O)NN)o1 | inactive
Cc1cccc2cc(COC(=O)c3cccnc3)c(=O)[nH]c12 | inconclusive: 10.4 µM [inhibitor, single point]
O=C(Nc1ccc(N2CCCC2)cc1)c1ccc2ccccc2c1 | inconclusive: 13.1 µM [inhibitor, single point]

SMILES | Potency
COc1ccc(CNC(=O)C2CCN(C(=O)Cc3ccccc3)CC2)cc1 | inactive
O=C(Nc1ccc(C(=O)OC[C@@H]2CCCN3CCCC[C@H]23)cc1)c1cccc(Br)c1 | active: 2.62 µM
COC(=O)c1ccc(C)c(NC(=O)COC(=O)C2CC3CCCC(C2)C3=O)c1 (stereo not drawn) | inactive
Cc1ccc(C(=O)Nc2cccc(S(=O)(=O)N3CCOCC3)c2)cc1[N+](=O)[O-] | inconclusive: 20.8 µM [inhibitor, partial curve, poor fit]
Cc1ccc(-c2[nH]nc3c2C(C)C(C#N)=C(N)O3)cc1 (stereo not drawn) | inconclusive: 0.465 µM [inhibitor, partial curve, poor fit]
O=C(N/N=C/c1c(Nc2cccc(C(F)(F)F)c2)nc2ccccn2c1=O)c1ccccc1 | inconclusive: 0.738 µM [inhibitor, full curve, poor fit]
O=C(NNC(=O)c1ccccc1-n1cccc1)c1ccc(Cl)nc1 | inactive
COc1ccc(CN2C(=O)/C(=C/c3ccncc3)SC2=S)cc1 | inconclusive: 0.0828 µM [inhibitor, full curve, poor fit]
O=C(N/N=C/c1cccc(Cl)c1)C(c1ccncc1)N1CCOCC1 (stereo not drawn) | inconclusive: 9.28 µM [inhibitor, partial curve, poor fit]
CC(=O)c1cccc(NC(=O)c2onc(C)c2Cl)c1 | inconclusive: 11.7 µM [inhibitor, single point]
Cc1c(-n2c(SCC(C)C)nc3ccccc3c2=O)c(=O)n(-c2ccccc2)n1C | inconclusive: 18.5 µM [inhibitor, single point]
CC(NC(=O)Nc1ccc([N+](=O)[O-])cc1)C(c1ccccc1)N1CCOCC1 (stereo not drawn) | inconclusive: 0.233 µM [inhibitor, full curve, poor fit]
C/C=C(\C)C(=O)NCCN1C2=NC[C@@H](Cc3ccccc3)N2C[C@H]1Cc1ccc(O)cc1 | inactive
O=C(NC1CCCC1)c1ccc2nc[nH]c2c1 | inactive
Cc1onc(-c2ccccc2Cl)c1C(=O)Nc1sc2c(c1C(N)=O)CCC(C)C2 (stereo not drawn) | inconclusive: 14.7 µM [inhibitor, single point]
COc1cccc(CN2CC(C(=O)NCc3cccc(N4CCCC4)c3)CCC2=O)c1 (stereo not drawn) | inconclusive: 18.5 µM [inhibitor, single point]
CCCN1CCN(C(=O)CCCNC(=O)c2ccc(Cl)cc2)CC1 | inconclusive: 4.15 µM [inhibitor, single point]
O=C(NCCCN1CCN(CCCNC(=O)c2ccc(F)cc2)CC1)c1ccc(F)cc1 | inconclusive: 4.15 µM [inhibitor, single point]
CCOC(=O)N1CCC(N2CCN(S(=O)(=O)c3ccc4ccccc4c3)CC2)CC1 | active: 11.7 µM
CC(C)Nc1nc(NC(C)C)nc(N(C)C#N)n1 | inconclusive: 9.28 µM [inhibitor, partial curve, poor fit]
Cc1cccc(NC(=S)NNC(=O)c2cccc([N+](=O)[O-])c2)c1 | inconclusive: 4.15 µM [inhibitor, partial curve, poor fit]

Arranged by count of non-hydrogen atoms (high to low): part of the list above
SMILES | Potency
C/C=C(\C)C(=O)NCCN1C2=NC[C@@H](Cc3ccccc3)N2C[C@H]1Cc1ccc(O)cc1 | inactive
O=C(Nc1ccc2c(c1)OCO2)c1ccc(Br)c(S(=O)(=O)N2CCCC2)c1 | inactive
Cc1cccc(NC(=S)NNC(=O)c2cccc([N+](=O)[O-])c2)c1 | inconclusive: 4.15 µM [inhibitor, partial curve, poor fit]
O=C1CCCN1c1ccc(S(=O)(=O)O)cc1 (tested in a mixture with another compound) | inconclusive: 14.7 µM [inhibitor, partial curve, poor fit]
